# The supplement of paper PMC10849652
# Protein sequences, listed by entry. Tags and fused reporters are not part of them. Lines headed by an entry give the natural chain unless they say otherwise; changes in a name come on top.
# UniProt P09960: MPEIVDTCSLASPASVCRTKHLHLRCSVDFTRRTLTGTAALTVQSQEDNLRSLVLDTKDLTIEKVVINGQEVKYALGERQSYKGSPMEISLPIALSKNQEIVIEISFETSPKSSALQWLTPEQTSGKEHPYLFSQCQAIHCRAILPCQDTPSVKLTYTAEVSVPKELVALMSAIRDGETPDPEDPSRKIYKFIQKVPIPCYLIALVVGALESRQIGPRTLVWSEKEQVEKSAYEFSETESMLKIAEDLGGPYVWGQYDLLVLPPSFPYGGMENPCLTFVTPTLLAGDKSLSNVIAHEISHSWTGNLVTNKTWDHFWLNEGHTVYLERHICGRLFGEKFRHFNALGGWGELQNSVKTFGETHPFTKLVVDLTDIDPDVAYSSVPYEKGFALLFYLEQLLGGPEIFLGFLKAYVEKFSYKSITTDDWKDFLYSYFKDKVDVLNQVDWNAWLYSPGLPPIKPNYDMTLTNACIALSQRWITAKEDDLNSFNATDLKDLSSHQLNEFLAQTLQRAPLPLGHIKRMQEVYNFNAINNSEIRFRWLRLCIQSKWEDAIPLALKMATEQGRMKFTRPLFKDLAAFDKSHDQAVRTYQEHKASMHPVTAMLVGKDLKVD
# UniProt Q66K74: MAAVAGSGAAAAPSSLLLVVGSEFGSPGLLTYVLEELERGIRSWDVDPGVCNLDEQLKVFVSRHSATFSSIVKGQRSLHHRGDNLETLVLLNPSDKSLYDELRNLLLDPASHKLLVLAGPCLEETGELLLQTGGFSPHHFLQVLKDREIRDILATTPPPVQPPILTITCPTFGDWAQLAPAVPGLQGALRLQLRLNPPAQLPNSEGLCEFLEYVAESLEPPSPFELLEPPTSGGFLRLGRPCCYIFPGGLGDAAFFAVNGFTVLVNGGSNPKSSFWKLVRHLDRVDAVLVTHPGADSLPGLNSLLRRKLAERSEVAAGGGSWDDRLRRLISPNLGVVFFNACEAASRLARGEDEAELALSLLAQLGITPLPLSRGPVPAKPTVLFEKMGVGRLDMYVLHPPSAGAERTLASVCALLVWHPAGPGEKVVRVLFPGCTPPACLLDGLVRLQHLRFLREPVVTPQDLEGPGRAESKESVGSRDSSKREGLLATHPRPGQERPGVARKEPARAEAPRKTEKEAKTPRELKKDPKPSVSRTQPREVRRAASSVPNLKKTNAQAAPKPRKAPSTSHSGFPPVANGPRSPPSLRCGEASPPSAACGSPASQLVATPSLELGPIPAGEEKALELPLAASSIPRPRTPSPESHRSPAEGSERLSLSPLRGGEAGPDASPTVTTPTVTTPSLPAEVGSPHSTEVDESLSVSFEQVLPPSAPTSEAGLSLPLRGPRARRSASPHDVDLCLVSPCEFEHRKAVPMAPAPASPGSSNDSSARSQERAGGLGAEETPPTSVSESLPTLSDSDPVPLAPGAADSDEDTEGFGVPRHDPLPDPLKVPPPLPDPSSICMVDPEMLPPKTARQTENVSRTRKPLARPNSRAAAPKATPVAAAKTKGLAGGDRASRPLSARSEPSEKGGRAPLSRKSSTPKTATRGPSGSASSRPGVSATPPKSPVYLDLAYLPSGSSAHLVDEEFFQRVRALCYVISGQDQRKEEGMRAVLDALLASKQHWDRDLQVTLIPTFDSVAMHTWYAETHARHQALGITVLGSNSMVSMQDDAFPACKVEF
# UniProt O60337: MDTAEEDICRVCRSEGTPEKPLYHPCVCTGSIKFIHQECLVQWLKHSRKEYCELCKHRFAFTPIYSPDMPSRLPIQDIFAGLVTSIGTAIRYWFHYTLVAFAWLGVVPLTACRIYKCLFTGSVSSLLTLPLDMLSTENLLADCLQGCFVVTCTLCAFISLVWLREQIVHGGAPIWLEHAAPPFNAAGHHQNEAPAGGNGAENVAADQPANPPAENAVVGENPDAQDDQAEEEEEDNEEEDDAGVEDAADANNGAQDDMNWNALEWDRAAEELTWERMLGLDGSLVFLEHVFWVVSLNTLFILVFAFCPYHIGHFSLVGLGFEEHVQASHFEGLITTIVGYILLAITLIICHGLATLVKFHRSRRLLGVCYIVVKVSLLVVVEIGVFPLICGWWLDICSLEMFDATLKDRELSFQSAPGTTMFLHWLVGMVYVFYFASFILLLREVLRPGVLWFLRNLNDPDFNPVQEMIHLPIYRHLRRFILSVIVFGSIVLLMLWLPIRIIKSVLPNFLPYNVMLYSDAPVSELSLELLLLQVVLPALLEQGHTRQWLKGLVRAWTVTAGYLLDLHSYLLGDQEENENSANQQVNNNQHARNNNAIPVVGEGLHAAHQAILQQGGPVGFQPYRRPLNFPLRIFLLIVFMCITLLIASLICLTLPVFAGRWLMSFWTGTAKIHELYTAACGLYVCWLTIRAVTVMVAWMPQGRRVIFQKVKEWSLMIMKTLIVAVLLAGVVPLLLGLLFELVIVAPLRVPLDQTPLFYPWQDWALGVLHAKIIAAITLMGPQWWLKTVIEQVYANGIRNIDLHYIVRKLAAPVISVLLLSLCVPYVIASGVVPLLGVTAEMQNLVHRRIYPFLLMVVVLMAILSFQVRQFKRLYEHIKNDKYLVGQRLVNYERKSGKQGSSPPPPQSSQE
# UniProt Q16706: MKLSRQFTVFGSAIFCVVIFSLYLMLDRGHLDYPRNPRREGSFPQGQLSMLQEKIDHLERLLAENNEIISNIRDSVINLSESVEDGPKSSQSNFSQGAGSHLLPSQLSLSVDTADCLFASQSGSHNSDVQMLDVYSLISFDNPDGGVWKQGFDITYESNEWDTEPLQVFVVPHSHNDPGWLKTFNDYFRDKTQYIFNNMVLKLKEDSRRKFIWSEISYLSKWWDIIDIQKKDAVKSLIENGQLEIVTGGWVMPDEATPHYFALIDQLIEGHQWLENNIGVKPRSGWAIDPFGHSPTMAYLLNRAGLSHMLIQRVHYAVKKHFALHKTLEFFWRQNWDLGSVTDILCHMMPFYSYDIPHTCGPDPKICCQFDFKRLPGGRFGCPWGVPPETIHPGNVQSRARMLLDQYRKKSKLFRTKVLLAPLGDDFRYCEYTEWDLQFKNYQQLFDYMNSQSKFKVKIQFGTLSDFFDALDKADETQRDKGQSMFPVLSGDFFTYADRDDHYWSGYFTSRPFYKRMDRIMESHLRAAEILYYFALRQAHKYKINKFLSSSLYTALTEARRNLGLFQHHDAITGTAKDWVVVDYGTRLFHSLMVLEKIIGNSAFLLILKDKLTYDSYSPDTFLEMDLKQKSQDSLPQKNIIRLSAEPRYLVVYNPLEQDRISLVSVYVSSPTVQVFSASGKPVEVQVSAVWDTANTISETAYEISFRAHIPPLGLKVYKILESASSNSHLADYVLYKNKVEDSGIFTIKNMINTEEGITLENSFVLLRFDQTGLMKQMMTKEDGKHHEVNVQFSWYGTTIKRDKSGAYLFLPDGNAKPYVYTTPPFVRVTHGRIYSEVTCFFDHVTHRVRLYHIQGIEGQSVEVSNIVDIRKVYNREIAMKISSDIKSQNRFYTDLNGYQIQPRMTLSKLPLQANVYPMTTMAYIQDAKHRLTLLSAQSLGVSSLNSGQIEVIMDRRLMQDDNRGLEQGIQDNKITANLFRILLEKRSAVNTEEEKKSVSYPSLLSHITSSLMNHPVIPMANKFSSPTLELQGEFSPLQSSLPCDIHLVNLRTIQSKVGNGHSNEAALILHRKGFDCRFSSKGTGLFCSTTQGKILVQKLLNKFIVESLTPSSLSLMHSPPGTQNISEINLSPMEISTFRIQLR
# UniProt Q6UWE0: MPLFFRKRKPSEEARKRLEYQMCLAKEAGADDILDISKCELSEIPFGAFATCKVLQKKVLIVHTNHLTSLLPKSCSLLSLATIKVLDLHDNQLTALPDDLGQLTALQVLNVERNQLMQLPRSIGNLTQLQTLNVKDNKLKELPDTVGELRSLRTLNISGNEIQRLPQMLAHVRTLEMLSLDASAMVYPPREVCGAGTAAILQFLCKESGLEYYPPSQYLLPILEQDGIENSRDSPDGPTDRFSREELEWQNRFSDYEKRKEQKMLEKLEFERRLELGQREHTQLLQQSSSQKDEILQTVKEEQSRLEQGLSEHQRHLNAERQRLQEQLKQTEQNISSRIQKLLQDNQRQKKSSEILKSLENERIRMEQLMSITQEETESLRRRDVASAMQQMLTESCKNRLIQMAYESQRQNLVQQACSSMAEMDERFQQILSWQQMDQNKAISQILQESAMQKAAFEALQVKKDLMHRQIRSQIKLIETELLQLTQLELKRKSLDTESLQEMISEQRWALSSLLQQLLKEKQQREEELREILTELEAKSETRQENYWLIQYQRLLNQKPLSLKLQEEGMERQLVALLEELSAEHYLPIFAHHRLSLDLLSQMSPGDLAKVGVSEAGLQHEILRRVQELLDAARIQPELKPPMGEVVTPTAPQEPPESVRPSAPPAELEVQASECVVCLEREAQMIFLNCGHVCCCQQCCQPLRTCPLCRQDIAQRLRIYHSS
# UniProt P62312: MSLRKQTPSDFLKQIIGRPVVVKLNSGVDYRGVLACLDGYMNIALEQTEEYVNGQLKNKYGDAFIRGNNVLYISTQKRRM
# UniProt P02788: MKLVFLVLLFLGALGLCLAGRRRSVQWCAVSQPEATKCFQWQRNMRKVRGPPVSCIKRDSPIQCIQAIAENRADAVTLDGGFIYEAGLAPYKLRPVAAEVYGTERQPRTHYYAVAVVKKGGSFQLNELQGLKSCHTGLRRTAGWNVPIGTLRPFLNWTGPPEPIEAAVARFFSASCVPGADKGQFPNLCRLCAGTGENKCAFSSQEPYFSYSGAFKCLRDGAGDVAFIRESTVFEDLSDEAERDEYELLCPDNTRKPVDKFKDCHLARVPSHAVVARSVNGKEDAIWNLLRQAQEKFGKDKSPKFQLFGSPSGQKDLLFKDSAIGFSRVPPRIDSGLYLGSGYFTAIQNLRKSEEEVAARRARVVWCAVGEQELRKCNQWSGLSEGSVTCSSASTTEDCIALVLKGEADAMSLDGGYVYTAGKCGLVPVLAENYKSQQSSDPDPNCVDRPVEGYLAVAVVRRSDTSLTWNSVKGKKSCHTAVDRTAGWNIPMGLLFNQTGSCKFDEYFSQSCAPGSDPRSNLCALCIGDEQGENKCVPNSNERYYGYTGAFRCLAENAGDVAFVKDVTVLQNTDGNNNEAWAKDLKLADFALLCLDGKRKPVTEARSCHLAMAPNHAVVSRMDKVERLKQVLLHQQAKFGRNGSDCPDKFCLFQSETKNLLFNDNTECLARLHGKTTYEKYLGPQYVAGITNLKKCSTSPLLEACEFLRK
# UniProt Q9UI95, whole entry, looked up: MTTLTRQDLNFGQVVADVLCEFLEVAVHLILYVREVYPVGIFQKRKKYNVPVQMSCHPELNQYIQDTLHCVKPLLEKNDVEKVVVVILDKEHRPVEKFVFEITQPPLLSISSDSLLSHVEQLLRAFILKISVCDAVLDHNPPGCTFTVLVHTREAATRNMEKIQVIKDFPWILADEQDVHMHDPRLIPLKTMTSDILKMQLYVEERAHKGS
# UniProt Q9NX47: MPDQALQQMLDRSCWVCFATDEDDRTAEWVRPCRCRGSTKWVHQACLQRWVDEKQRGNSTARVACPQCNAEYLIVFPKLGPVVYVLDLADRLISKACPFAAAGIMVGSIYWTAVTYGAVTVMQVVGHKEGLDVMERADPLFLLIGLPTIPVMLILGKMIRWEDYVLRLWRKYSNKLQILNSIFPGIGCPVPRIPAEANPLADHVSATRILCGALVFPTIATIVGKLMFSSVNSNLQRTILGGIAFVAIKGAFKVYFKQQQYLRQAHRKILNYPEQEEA
# UniProt Q9Y4Y9: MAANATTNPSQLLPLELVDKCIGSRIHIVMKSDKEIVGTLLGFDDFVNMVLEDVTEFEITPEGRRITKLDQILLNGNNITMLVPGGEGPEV
# UniProt P33908: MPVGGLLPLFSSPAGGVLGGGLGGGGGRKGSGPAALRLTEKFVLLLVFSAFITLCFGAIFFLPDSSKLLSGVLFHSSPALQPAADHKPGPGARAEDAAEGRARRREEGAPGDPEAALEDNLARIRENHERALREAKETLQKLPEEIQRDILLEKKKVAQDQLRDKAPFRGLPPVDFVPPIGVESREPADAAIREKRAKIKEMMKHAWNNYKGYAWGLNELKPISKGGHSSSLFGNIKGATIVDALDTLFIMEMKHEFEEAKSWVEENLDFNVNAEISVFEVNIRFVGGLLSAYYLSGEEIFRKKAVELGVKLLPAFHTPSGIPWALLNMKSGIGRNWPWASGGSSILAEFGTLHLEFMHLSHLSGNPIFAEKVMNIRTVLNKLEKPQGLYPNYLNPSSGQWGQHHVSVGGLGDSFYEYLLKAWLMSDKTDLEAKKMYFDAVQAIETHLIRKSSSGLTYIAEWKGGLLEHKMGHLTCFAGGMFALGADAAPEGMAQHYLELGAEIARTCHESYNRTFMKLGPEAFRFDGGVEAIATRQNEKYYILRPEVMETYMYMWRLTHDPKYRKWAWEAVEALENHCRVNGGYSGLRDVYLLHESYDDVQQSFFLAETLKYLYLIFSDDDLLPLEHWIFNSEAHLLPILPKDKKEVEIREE
# UniProt Q5U5X0: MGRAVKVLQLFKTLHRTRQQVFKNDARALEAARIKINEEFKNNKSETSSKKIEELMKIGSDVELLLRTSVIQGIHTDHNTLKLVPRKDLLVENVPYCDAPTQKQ
# The other results are listed elsewhere or left out.
# Compound: c1cn2cc(-c3ccc4cn[nH]c4c3)nc(Nc3ccc(N4CCOCC4)cc3)c2n1 [entospletinib]
# Assay: log2 fold change, soluble protein after heating vs DMSO (PISA); higher = thermal stabilisation; K562 cells, 10 uM, 30 min; active = over 0.2 and 3.5 SD of the protein, either way, in both replicates (recomputed)
# Procedure, shortened: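 K562 cells at 2×10^6 cells/mL were treated for 30 min with 10 μM compound, and aliquots were heated for 3 min over 48°C-58°C before pooling. Extraction used PBS with 0.5% NP-40 at 4°C, and soluble protein was the supernatant after 21,000xg for 90 min, measured by TMTpro 16plex LC-MS/MS with channel sums equalised. Thermal stability values, relative to control samples and from duplicates, are log2 fold changes.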
row,Target,log2 fold change
1,LTA4H (UniProt P09960),inactive: -0.029
2,LYPLA1 (UniProt O75608),inactive: 0.019
3,MAP1A isoform 2 (UniProt P78559),inactive: 0.052
4,LSM14A isoform 2 (UniProt Q8ND56),inactive: -0.026
5,MAP1S (UniProt Q66K74),inactive: -0.026
6,MACC1 (UniProt Q6ZN28),inactive: -0.003
7,LTBR (UniProt P36941),inactive: 0.454
8,MAN2A2 (UniProt P49641),inactive: -0.061
9,MARCHF6 (UniProt O60337),inactive: -0.055
10,MAP7D1 (UniProt Q3KQU3),inactive: 0.068
11,MAN2A1 (UniProt Q16706),inactive: 0.046
12,MANBA (UniProt O00462),inactive: 0.035
13,MALSU1 (UniProt Q96EH3),inactive: 0.039
14,LRSAM1 (UniProt Q6UWE0),inactive: 0.014
15,MAPRE2 (UniProt Q15555),inactive: 0.036
16,LSM6 (UniProt P62312),inactive: 0.069
17,LTF (UniProt P02788),inactive: 0.384
18,MAD2L2 (UniProt Q9UI95),inactive: 0.078
19,MARCHF5 (UniProt Q9NX47),inactive: 0.008
20,LSM5 (UniProt Q9Y4Y9),inactive: -0.025
21,LSG1 (UniProt Q9H089),inactive: 0.105
22,MACO1 (UniProt Q8N5G2),inactive: 0.022
23,MAN1A1 (UniProt P33908),inactive: 0.018
24,LYRM7 (UniProt Q5U5X0),inactive: 0.01
25,LSM14B (UniProt Q9BX40),inactive: 0.079
26,MAP2K4 isoform 2 (UniProt P45985),inactive: 0.056
27,LYSMD2 (UniProt Q8IV50),inactive: 0.001
28,MACF1 (UniProt Q9UPN3),inactive: 0.105

# 5 entries from above in a different format.
row	Target	log2 fold change
3	MAP1A isoform 2 (UniProt P78559)	inactive: 0.052
4	LSM14A isoform 2 (UniProt Q8ND56)	inactive: -0.026
5	MAP1S (UniProt Q66K74)	inactive: -0.026
6	MACC1 (UniProt Q6ZN28)	inactive: -0.003
7	LTBR (UniProt P36941)	inactive: 0.454
